## Results of single-concentration screens

Amino acid sequences for entries named in this document (tags omitted). Residues count along the entry.
UniProt Q4DA54, 1-478: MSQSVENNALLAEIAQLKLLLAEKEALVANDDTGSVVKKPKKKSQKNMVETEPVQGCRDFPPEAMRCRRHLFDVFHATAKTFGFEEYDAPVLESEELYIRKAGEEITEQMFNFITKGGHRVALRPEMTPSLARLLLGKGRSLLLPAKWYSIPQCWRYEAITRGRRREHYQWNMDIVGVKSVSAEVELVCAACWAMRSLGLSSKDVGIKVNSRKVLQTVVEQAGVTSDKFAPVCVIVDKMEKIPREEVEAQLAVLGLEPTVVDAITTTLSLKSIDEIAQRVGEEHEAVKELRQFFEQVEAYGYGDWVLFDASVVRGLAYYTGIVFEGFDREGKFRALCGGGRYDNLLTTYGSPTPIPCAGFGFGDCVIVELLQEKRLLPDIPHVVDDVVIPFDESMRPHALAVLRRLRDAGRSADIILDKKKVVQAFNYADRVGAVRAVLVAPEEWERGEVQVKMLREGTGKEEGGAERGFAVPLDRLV
UniProt A4I591, 1-473: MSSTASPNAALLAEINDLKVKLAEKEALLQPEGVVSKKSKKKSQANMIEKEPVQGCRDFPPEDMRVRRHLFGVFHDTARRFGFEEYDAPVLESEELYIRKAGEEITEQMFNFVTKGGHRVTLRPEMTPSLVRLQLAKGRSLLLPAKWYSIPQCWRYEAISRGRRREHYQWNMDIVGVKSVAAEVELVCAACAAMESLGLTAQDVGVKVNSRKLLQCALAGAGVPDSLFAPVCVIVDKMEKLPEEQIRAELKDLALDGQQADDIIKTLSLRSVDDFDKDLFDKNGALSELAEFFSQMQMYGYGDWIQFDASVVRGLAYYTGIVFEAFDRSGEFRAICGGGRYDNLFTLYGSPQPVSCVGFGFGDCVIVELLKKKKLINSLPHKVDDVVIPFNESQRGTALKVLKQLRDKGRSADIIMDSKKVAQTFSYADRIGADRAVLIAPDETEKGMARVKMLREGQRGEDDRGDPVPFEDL
UniProt P9WPC5, whole entry: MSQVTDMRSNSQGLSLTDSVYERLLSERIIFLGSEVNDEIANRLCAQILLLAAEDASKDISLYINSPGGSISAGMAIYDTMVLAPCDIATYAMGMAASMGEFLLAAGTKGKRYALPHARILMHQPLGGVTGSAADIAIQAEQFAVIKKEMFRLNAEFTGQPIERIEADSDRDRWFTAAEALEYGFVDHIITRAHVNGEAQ
UniProt P9WPC3, whole entry partner: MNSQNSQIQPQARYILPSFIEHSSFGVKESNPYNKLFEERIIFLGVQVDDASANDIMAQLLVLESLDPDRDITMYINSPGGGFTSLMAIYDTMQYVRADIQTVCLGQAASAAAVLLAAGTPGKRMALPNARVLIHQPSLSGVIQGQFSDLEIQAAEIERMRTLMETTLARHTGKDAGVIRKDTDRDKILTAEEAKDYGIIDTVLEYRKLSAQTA

The values are deposited in ChEMBL (CHEMBL3988442, “University of Dundee, Small-Polar-MMV Screening Library” (2021)).

Toxoplasma: 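Assay of Toxoplasma gondii numbers, read through their beta-galactosidase reporter with a colour substrate. Tested at 10 µM. The record gives no direction; the compounds picked for IC50 retests had high values, so higher reads as fewer parasites. About 67,000 compounds were tested under these conditions; 0.38% (about 260) showed 50% or more at least once.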
Leishmania in macrophages: 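Cell assay of Leishmania donovani living inside macrophages; the read-out is not stated. Concentration: 30 µM. Higher reads as stronger inhibition (inferred: compounds with an IC50 in retests scored well above the rest). About 69,000 compounds were tested under these conditions; 1.5% (about 1,000) showed 50% or more at least once.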
TcHisRS: 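Enzyme assay of histidyl-tRNA synthetase; the read-out is not stated. Target: Histidine-tRNA ligase, Trypanosoma cruzi CL Brener (UniProt Q4DA54). Concentration: 30 µM. The record gives no direction; compounds that gave an IC50 in retests scored well above the rest, so higher reads as stronger inhibition. Of about 69,000 compounds tested this way, about 31 (0.045%) reached 50% or more in at least one test.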
LiHisRS: 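Histidine-tRNA ligase, Leishmania infantum (UniProt A4I591). Enzyme assay of histidyl-tRNA synthetase; the read-out is not stated. Concentration: 30 µM. Higher reads as stronger inhibition (inferred: compounds with an IC50 in retests scored well above the rest). The assay is labelled LdHisRS but filed under L. infantum. Size under these conditions: about 69,000 compounds, about 410 of them at 50% or above in at least one test.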
ClpP1P2: 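ClpP1P2, Mycobacterium tuberculosis (UniProt P9WPC5 and UniProt P9WPC3). Protease assay of ClpP1P2, read by the AMC dye that it sets free. Concentration: 50 µM. Direction is inferred from only a few compounds that gave an IC50; most scored high, so higher reads as stronger inhibition. Most other retested compounds had strongly negative values. Of about 69,000 compounds tested this way, about 10 (0.015%) reached 50% or more in at least one test.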
T. brucei: 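Whole-parasite assay of Trypanosoma brucei over 72 hours; the read-out is not stated. Compounds at 30 µM. The record gives no direction; compounds that gave an IC50 in retests scored well above the rest, so higher reads as stronger inhibition. Values scatter widely below zero; nearly all retest evidence comes from the higher of the two concentrations used. Of about 64,000 compounds tested this way, about 940 (1.5%) reached 50% or more in at least one test.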

The filed quantity is “Percent Effect” (%). How 0% and 100% were set is not recorded. Most values in the screen are low, and negative values occur. Compounds were drawn at random from those tested, without regard to their results. A dash means the value is not listed here; it may have been measured.

| # | compound | Toxoplasma | Leishmania in macrophages | TcHisRS | LiHisRS | ClpP1P2 | T. brucei |
|---|---|---|---|---|---|---|---|
| 1 | `CSC(C)C(=O)NCCC(=O)N1CCN(c2ccccn2)CC1` (stereo unspecified) | 6.786 | -21.15 | 4.523 | 11.24 | -2.282 | 4.835 |
| 2 | `Cc1ccc(N2CCC3(CC2)CNC(=O)CO3)nn1.O=C(O)C(F)(F)F` | 17.11 | 11.43 | - | - | - | -12.59 |
| 3 | `Cc1ncc(CN2CCC3(CCCN(CC4CCC4)C3)C2)cn1` (stereo unspecified) | -4.606 | 11.1 | 13.86 | 19.05 | -5.325 | -9.32 |
| 4 | `Cc1cc(-c2cc(S(=O)(=O)N3C[C@H](C4CC4)[C@@H](N)C3)c(C)s2)on1` | -2.406 | -8.559 | -5.579 | 13.11 | -4.947 | -57.84 |
| 5 | `Cc1cnn(CC2CN(CCS(=O)(=O)C(F)(F)F)CCO2)c1` (stereo unspecified) | 16.19 | 12.58 | 1.058 | 0 | 16.19 | -14.27 |
| 6 | `COc1ccccc1NC(=O)CC(C)NCCc1sc(C)nc1C` (stereo unspecified) | 0 | 24.02 | 2.956 | -4.11 | -1.971 | -30.8 |
| 7 | `CNC(=O)N1CC[C@H]2N(C)CC[C@@]2(C(=O)Nc2ccccc2)CC1` | - | - | -0.5348 | 11.54 | -2.367 | - |
| 8 | `Cl.O=S(=O)(N1CCCCC1)N1CCc2nc(C3CCNCC3)ncc2C1` | -2.755 | 4.141 | - | - | - | 12.82 |
| 9 | `c1cncc(CN2CCn3c(Cn4cncn4)cnc3C2)c1` | - | - | 0 | 10 | -7.933 | - |
| 10 | `CC(C)NC(=O)N1CCC2(CC1)NC(=O)[C@H]1CN(C(=O)N(C)C)C[C@H]12` | - | - | 2.913 | 5.825 | -6.772 | - |
| 11 | `N#CCCCS(=O)(=O)N1CCC(CSc2ccccc2)C1` (stereo unspecified) | 10.71 | 0.8227 | 5.195 | 25.71 | -1.372 | -11.13 |
| 12 | `Cc1cc(C)nc(C2CCN(C3CCOCC3)C2)n1` (stereo unspecified) | -34.65 | 29.44 | 6.202 | 11.35 | 5.614 | -0.5724 |
| 13 | `O=C(NCCc1ccncc1)[C@H]1CC[C@@H]2[C@@H](CCN2CC2CC2)O1` | - | - | 3.922 | 14.29 | -7.448 | - |
| 14 | `CN(C)C(=O)CO[C@@H]1CC[C@H]2[C@H]1OCCN2C(=O)C1CCOCC1` | - | - | 3.743 | 15.38 | -10.2 | - |
| 15 | `CC1=Nc2c(c(=O)[nH]n2C(C)C)C(c2cccc(OC(F)F)c2)S1` (stereo unspecified) | -5.796 | 5.352 | 0.5848 | 34.21 | -1.304 | -30.57 |
| 16 | `CCN1CCOC(CNCc2cnc(C(C)(C)C)s2)C1` (stereo unspecified) | 3.832 | 44.22 | 7 | 12.24 | -3.579 | -31.19 |
| 17 | `COCC1CN(S(=O)(=O)c2cccc(F)c2)Cc2nccn2C1` (stereo unspecified) | 2.24 | 21.12 | 4.523 | 7.921 | 1.573 | 4.426 |
| 18 | `CCc1nc(CN2CCCN(C(=O)CC(F)(F)F)CC2)cs1` | -15.98 | 29.54 | 6.916 | 16.07 | -26.85 | 6.931 |
| 19 | `CNC(=O)[C@@H]1C[C@@H](n2cc(-c3ccc(Cl)cc3)nn2)CN1` | -1.123 | 32.88 | 0.4975 | 11.19 | -2.386 | -11.85 |
| 20 | `O=C(CCCNCc1ccc(Cl)c2cccnc12)NC1CC1` | -4.945 | 23.25 | 4.255 | 16.42 | -6.483 | 6.096 |
| 21 | `CN(CC(=O)NC(Cc1ccsc1)c1cccnc1)Cc1cccnc1.Cl` (stereo unspecified) | -13.87 | 2.46 | - | - | - | -0.9311 |
| 22 | `CCOC1COC2(CCN(S(=O)(=O)c3ccc(F)cc3)CC2)C1` (stereo unspecified) | 6.857 | 12.78 | 4.124 | 12 | -1.959 | -9.534 |
| 23 | `CCCN(Cc1cccnc1)C(=O)C1CCCN(C)C1` (stereo unspecified) | -11.85 | 4.041 | 5.946 | -58.12 | -3.033 | -18.06 |
| 24 | `Cc1cc(CNC(=O)c2cc(NC(=O)C(C)C)ccc2Cl)no1` | -5.398 | -7.898 | 3.571 | 0 | -1.82 | -13.13 |
| 25 | `Cc1ccccc1OCCCC(=O)N(C)CCC#N` | -0.3367 | 10.27 | -0.8333 | 3.774 | -13.95 | 12.5 |
| 26 | `Fc1cnc(N2CC3(CCN(Cc4ccsc4)C3)C2)nc1` | - | - | 10.92 | 17.43 | -2.042 | - |
| 27 | `CN(Cc1nnn(CC2CCC2)n1)C(=O)c1ccccc1` | 2.128 | 9.314 | 2.155 | 13.92 | -13.41 | 5.045 |
| 28 | `Cc1nc(-c2ccncc2)ncc1C(C)NC(=O)Cn1ccccc1=O` (stereo unspecified) | 6.74 | -5.487 | 4 | 26.23 | -10.29 | 21.95 |
| 29 | `O=C(CN1CCCS1(=O)=O)NCCOc1ccc2c(c1)CCC2` | -9.248 | 22.18 | -1.527 | 6.383 | 2.791 | -10.92 |
| 30 | `O=C(O)C(F)(F)F.[H][C@@]12C[C@@H](c3nc(C)no3)CN(C(C)C)[C@]1([H])CCO2` | -17.91 | -1.476 | - | - | - | -0.5314 |
| 31 | `Cc1noc(CN2CCCC(Cn3nc(C)nc3C)C2)n1` (stereo unspecified) | -14.06 | 1.87 | 4.871 | 10.53 | 7.059 | -15.67 |
| 32 | `CC(=O)N1CCN(Cc2ccc(F)cc2)CC2(CC(=O)N(C)C2)C1.O=C(O)C(F)(F)F` (stereo unspecified) | -10.66 | 5.342 | - | - | - | -72.99 |
| 33 | `CC(NC(=O)CSCC#N)c1cccc(NC(=O)c2ccccc2)c1` (stereo unspecified) | -2.323 | -12.33 | -0.7576 | 28.79 | 0.5684 | 17.78 |
| 34 | `CC(C)c1nccc([C@H]2C[C@@H]3CCN(Cc4ccoc4)C[C@H]3O2)n1` | - | - | 9.29 | 17.65 | -2.33 | - |
| 35 | `Cn1nc2c(cc1=O)CN(CCN1CCCC1=O)CC2` | 1.356 | 2.653 | 0.2907 | 4.386 | -27.68 | -31.65 |
| 36 | `Cc1nnc2n1CCN(C(=O)c1cnc3c(cnn3CC(C)C)c1)C2` | -2.51 | 2.85 | 0.5128 | 0 | -3.954 | -13.7 |
| 37 | `COCc1noc(CN2CCCCC2CCc2cccs2)n1` (stereo unspecified) | -15.88 | 34.73 | 7.463 | 4.196 | -0.1642 | -0.702 |
| 38 | `Cc1cc(C)n(CC2CN(c3ncnc4[nH]ccc34)CCO2)n1` (stereo unspecified) | -25.08 | 14.57 | 7.887 | -2.609 | -7.411 | -5.074 |
| 39 | `O=C(O)C(F)(F)F.O=C(O)C(F)(F)F.[H][C@@]12CCN(Cc3ccccn3)[C@]1([H])CC[C@H](C(=O)N(C)C)O2` | 0.9043 | 1.756 | - | - | - | -76.48 |
| 40 | `CCn1c(C2CCCN(Cc3cc(OC)cc(OC)c3)C2)nn(C)c1=O` (stereo unspecified) | -3.304 | 14.06 | 5.814 | 4.918 | -12.37 | -43.85 |
| 41 | `O=C(O)C(F)(F)F.[H][C@@]12CN(Cc3ccc(F)cc3)C[C@]1([H])C(=O)N(CCOC)C2` | -10.02 | 6.125 | - | - | - | -7.407 |
| 42 | `O=C1N(Cc2cccnc2)C[C@H]2CN(C3CCOCC3)CCN12` | - | - | 3.483 | 27.03 | -5.801 | - |
| 43 | `Cc1ccc(C)c(CC(=O)Nc2cnccc2SCCCO)c1` | 1.003 | -1.244 | 6.061 | 4.762 | 18.11 | -36.36 |
| 44 | `[H][C@@]12CCN(C(=O)C3CCOCC3)C[C@]1(COC)CCO2` | -20.43 | 32.43 | - | - | - | -29.27 |
| 45 | `Cc1cccc(C)c1OCCNC(=O)CNC(=O)C1CCCC1` | -0.3873 | 37.63 | -0.6452 | 13.13 | 10.97 | -15.1 |
| 46 | `O=C(NCc1nnc2n1CCC2)c1cccc(Br)c1` | -19.6 | -0.5511 | 0.8929 | 17.7 | -3.193 | -53.48 |
| 47 | `CC(=O)c1cc(CN2C[C@@H](N(C)C)[C@H](C(C)C)C2)cs1` | -6.152 | -7.57 | 4.046 | -1.333 | 9.342 | -26.29 |
| 48 | `O=C(C[C@@H]1COC[C@H]2CN(Cc3cccnc3)C[C@@H]12)NCC1CC1` | - | - | -1.676 | 3.846 | -11.25 | - |
| 49 | `O=C1CC(N(C(=O)CCc2c[nH]c3ccccc23)C2CC2)C(=O)N1` (stereo unspecified) | 7.83 | -5.22 | 13 | 16.33 | 13.87 | -27.15 |
| 50 | `O=C(O)C(F)(F)F.O=C(O)C(F)(F)F.c1coc(CN2CCCC3(COCCN(Cc4c[nH]nn4)C3)C2)c1` (stereo unspecified) | 0.641 | 18.42 | - | - | - | -238.6 |
| 51 | `CN1CCN(Cc2nc3ccccc3[nH]2)[C@H]2CS(=O)(=O)C[C@H]21` | - | - | 4.237 | 15.09 | 11.52 | - |
| 52 | `Cn1cc(C2CCCN2CCCc2nc(-c3cccs3)no2)cn1` (stereo unspecified) | -2.929 | 19.43 | 5.263 | 9.524 | -4.598 | -14.6 |

The first 4 entries again:

| compound | Toxoplasma | Leishmania in macrophages | TcHisRS | LiHisRS | ClpP1P2 | T. brucei |
|---|---|---|---|---|---|---|
| `CSC(C)C(=O)NCCC(=O)N1CCN(c2ccccn2)CC1` (stereo unspecified) | 6.786 | -21.15 | 4.523 | 11.24 | -2.282 | 4.835 |
| `Cc1ccc(N2CCC3(CC2)CNC(=O)CO3)nn1.O=C(O)C(F)(F)F` | 17.11 | 11.43 | - | - | - | -12.59 |
| `Cc1ncc(CN2CCC3(CCCN(CC4CCC4)C3)C2)cn1` (stereo unspecified) | -4.606 | 11.1 | 13.86 | 19.05 | -5.325 | -9.32 |
| `Cc1cc(-c2cc(S(=O)(=O)N3C[C@H](C4CC4)[C@@H](N)C3)c(C)s2)on1` | -2.406 | -8.559 | -5.579 | 13.11 | -4.947 | -57.84 |